According to article PMC9958537:
Results are given in words; binding and its absence hold for the method and conditions named. In cells and extracts the contact can be indirect. These calls come from enrichment with a bait or labelling near it, and not all partners need be listed. For some assays here: Sequences can lack the tags named with a protein.

Chains of the proteins cited; added tags and fusions are not shown.
UniProt A1KFR2: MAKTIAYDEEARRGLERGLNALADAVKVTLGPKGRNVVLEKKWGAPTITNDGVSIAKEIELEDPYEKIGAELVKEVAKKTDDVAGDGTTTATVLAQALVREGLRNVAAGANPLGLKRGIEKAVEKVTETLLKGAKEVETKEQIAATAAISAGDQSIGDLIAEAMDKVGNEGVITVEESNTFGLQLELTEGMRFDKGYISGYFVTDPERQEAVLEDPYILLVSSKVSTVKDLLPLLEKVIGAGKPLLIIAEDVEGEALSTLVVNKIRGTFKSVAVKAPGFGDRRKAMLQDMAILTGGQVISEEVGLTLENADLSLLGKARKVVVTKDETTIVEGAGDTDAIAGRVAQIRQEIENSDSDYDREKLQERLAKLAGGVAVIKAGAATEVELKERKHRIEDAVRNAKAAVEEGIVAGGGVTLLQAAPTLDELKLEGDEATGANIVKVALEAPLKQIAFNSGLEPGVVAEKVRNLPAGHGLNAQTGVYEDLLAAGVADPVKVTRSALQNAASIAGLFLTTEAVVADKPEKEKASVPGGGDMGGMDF
UniProt A1KPA8: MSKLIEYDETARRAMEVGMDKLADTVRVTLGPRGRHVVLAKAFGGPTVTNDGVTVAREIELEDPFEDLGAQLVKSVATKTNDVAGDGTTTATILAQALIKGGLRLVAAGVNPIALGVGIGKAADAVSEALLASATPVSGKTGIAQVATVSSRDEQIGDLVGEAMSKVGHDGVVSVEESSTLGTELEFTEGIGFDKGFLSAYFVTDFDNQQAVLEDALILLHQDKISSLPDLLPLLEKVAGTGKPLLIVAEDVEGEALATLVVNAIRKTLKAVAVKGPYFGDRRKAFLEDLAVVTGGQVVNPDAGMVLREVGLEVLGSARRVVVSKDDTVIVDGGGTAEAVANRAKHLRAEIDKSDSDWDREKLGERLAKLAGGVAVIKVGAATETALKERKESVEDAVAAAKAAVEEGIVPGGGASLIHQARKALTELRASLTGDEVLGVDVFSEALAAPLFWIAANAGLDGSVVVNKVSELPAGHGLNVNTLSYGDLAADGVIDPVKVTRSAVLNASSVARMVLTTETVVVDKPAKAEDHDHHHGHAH
UniProt P0A4W7: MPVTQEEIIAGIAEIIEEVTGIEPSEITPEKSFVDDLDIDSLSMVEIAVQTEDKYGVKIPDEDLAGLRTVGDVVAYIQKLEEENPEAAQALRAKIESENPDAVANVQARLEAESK
UniProt A1KGG5: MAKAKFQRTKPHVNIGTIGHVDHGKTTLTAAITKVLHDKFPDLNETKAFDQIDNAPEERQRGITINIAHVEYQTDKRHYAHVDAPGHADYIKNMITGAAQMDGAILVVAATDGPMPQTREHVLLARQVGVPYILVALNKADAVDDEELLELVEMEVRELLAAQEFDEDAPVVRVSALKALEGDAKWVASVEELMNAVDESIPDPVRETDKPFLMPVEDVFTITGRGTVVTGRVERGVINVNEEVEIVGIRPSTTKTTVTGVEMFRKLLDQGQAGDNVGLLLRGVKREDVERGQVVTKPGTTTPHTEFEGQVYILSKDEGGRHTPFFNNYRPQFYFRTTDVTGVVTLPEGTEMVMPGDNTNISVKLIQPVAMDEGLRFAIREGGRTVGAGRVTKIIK

Tests used:
[1] = target: T1, His-tagged plectasin NZX peptide (6×His-TEV-NZX) (Pseudoplectania nigrella); assay: affinity purification with mass spectrometry; only the target purified
T1 sequence: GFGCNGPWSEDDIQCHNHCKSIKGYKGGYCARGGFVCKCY

[2] = target: T2, Biotin-labelled plectasin NZX peptide (Pseudoplectania nigrella); assay: as above
T2 sequence (chain, biotin at the C-terminal): T1 sequence

| Substance | binding [1] | binding [2] |
| --- | --- | --- |
| 60 kDa chaperonin 2 (from UniProt A1KFR2 1-540) | binds | binds |
| 60 kDa chaperonin 1 (from UniProt A1KPA8 1-539) | binds | binds |
| meromycolate extension acyl carrier protein (AcpM) (from UniProt P0A4W7 1-115) | binds | binds |
| elongation factor Tu (from UniProt A1KGG5 1-396) | binds | binds |
